# Test results as given in PubChem BioAssay AID1487 (National Center for Advancing Translational Sciences (NCATS), 2009).
# The list shows a part of the results. Further columns of the screen follow, without active or inactive calls. Compounds called inactive in the main read-out are mostly missing here. Words in brackets tell the shape of the fitted curve; partial curves, single points and poor fits give uncertain potencies.
# Test: qHTS Assay for Modulators of Lamin A Splicing
# Settings: HeLa LMNA splicing GFP/RFP minigene ratio, 48 h
# Method in brief: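 S3 HeLa stable clones carrying a lamin A-EGFP splicing minigene plus DsRed2 were seeded at 600 cells/well in Opti-MEM with 2% FBS, pin-dosed and incubated 48 h at 37°C. Acumen cytometry (488 nm) gave the GFP/RFP total-intensity ratio.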
# [1] = measured here: GFP splicing reporter channel
# [2] = measured here: RFP viability control channel
SMILES,AC50 [1],AC50 [2]
CC(=O)Oc1ccc2c(=O)c(Oc3ccccc3)coc2c1OC(C)=O,"11.2 µM [rising, partial curve]","20 µM [rising, partial curve]"
Brc1ccc2c(c1)C(c1cccnc1)=NNC(c1cccs1)=N2,,"22.4 µM [rising, partial curve, poor fit]"
Cc1noc(C)c1C1(O)CCCCCCCCCCC1,"31.6 µM [rising, single point]","17.8 µM [rising, single point]"
CC(C)SC1=NC(C)(C)C=C(/C=C/c2ccc(Cl)cc2Cl)N1,"20 µM [falling, single point]",
Oc1cccc(/C=N/N(Cc2ccccc2)c2ccccc2)c1,"0.00316 µM [falling, full curve, poor fit]","35.5 µM [falling, partial curve]"
CC(C(=O)NCc1ccco1)n1nc(-c2ccccc2)c2cc(Cl)ccc21 (centres undefined),"25.1 µM [rising, single point]",
CC(=O)C1=C(C)NC(SCC(=O)c2ccccc2)=C(C#N)C1c1ccco1 (centres undefined),"12.6 µM [rising, partial curve]",
COc1cccc(S(=O)(=O)Nc2ccc3sc(C)nc3c2)c1,,"35.5 µM [rising, single point]"
CC(C)SC1=NC(C)(C)C=C(/C=C/c2c(Cl)cccc2Cl)N1,"10 µM [falling, partial curve]",
Cc1c(C(=O)N2CCCCCC2)c(S(=O)(=O)Nc2ccc(OC(F)(F)F)cc2)c(C)n1C,"35.5 µM [falling, single point]",
O=C(CN1CCN(S(=O)(=O)c2ccc(Cl)s2)CC1)NCc1ccc(Cl)cc1,,"12.6 µM [rising, single point]"
Cc1cccc2cc(C#N)c(SCC(=O)N3CCC(C)CC3)nc12,"10 µM [rising, partial curve]",
Cc1ccc(-c2nnc(-c3ccccc3)c(N3CCOCC3)n2)cc1,"35.5 µM [falling, single point]","25.1 µM [falling, single point]"
O=S(=O)(Cc1ccccc1)N1CCN(Cc2ccc3c(c2)OCO3)CC1,,"14.1 µM [rising, single point]"
CC(C)[C@H](NC(=O)OCc1ccccc1)C(=O)N[C@H](C=O)Cc1ccccc1,"35.5 µM [falling, single point]",
Cc1cc(C)c(S(=O)(=O)Nc2ccc(-c3ccc(N4CCCCC4)nn3)cc2)c(C)c1,"1.41 µM [falling, full curve, poor fit]","0.0178 µM [falling, full curve, poor fit]"
CCOc1ccc(S(=O)(=O)Nc2ccc3c(c2)c2c(n3S(=O)(=O)c3ccc(OCC)cc3)CCCC2=O)cc1,"4.47 µM [falling, partial curve, poor fit]","2.82 µM [falling, partial curve, poor fit]"
CCNc1ccc2noc3c2c1C(=O)c1ccccc1-3,,"14.1 µM [rising, single point]"

# 2 of the compounds above, with bars between the fields:
SMILES | AC50 [1] | AC50 [2]
CC(=O)C1=C(C)NC(SCC(=O)c2ccccc2)=C(C#N)C1c1ccco1 (centres undefined) | 12.6 µM [rising, partial curve] | 
COc1cccc(S(=O)(=O)Nc2ccc3sc(C)nc3c2)c1 |  | 35.5 µM [rising, single point]

# (further entries)

SMILES,AC50 [1],AC50 [2]
COc1cc(/C=N/OCC(=O)NC2CCCCC2C)ccc1OCc1ccc(Cl)cc1 (centres undefined),"6.31 µM [rising, partial curve]","14.1 µM [rising, partial curve]"
O=C(O)Cc1cccc2ccccc12,"0.447 µM [falling, full curve, poor fit]",
COc1cc(C2C(C#N)=C(C)NC3=C2C(=O)c2ccccc23)cc(OC)c1OC (centres undefined),"0.631 µM [rising, single point]","0.794 µM [rising, full curve]"
CCOC(=O)C1CCN(C(c2cc3ccc(C)c(C)c3[nH]c2=O)c2nnnn2C2CCCCC2)CC1 (centres undefined),"17.8 µM [rising, single point]",
CCn1c(CN2CCCCC2)nc2cc(NC(=O)COc3cc(C)ccc3C(C)C)ccc21,"35.5 µM [falling, partial curve]","35.5 µM [falling, partial curve, poor fit]"
Cc1ccc(N(C)S(=O)(=O)c2ccc(-c3cnc(C4CC4)o3)cc2)cc1,"0.0355 µM [rising, full curve, poor fit]","0.891 µM [rising, full curve]"
COc1ccc(N(C)S(=O)(=O)c2cccc(C(=O)Nc3ccc(OC)nc3)c2)cc1,,"14.1 µM [rising, partial curve]"
O=C(Cc1c[nH]c2ccccc12)NCc1ccccc1F,,"3.98 µM [rising, single point]"
O=C(c1ccccc1NS(=O)(=O)c1cccc(C(F)(F)F)c1)N1CCc2ccccc21,,"35.5 µM [rising, single point]"
O=C(Nc1nnc(-c2ccccn2)o1)c1cccc(Br)c1,,"20 µM [rising, single point]"
Cc1ccc(C)c(NC(=O)N2CCN(c3nnc(C)c4c(C)n(-c5ccccc5)nc34)CC2)c1,,"0.251 µM [falling, full curve, poor fit]"
Cc1cc(C)nc(/N=C(\N)Nc2ccc(OCc3ccccc3)cc2)n1,"6.31 µM [falling, single point]",
Cc1scc(-c2n[nH]c(=S)n2C(C)c2ccccc2)c1C (centres undefined),"14.1 µM [rising, single point]","31.6 µM [rising, single point]"
Cc1oc(-c2ccc(-c3ccccc3)cc2)nc1CN1CCN(CC(=O)N(C)C)CC1,"20 µM [falling, partial curve, poor fit]","14.1 µM [falling, partial curve, poor fit]"
N#CCCn1c(Cl)nc2ccccc21,"3.16 µM [rising, single point]","3.55 µM [rising, partial curve]"
O=C(CSc1nc2ccccc2c(=O)n1Cc1ccc(C(=O)NC2CC2)cc1)NCc1ccco1,,"35.5 µM [rising, single point]"
Cc1c(C(=O)N(C)c2ccccc2)sc2nc(-c3ccc(F)cc3)cn12,"6.31 µM [rising, partial curve]","3.98 µM [rising, full curve, poor fit]"
